Data on 25 compounds can be found in the supplement of paper PMC5770031.

Some of the results follow. This data set is noisy: repeats of one test often differ as much as different tests do.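 ATM8/balancer (normal ATM) heterozygous flies were crossed on treated food; parents laid eggs 5–6 days, offspring developed ~12 days, so parents and larvae ingested compound. Readout: fraction of emerged adults homozygous for ATM8 versus 2% DMSO controls. Compounds were neutral at 10–20% homozygotes, harmful below 10%, helpful above 20%.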

This experiment has as its system Drosophila melanogaster ATM8 (temperature-sensitive ATM allele). In words: fraction of eclosed F1 progeny that are homozygous ATM8 (rescue of developmental lethality); higher = more rescue of ATM8 developmental lethality; extreme values may be limits of the assay. Particulars: compound concentration applied to food 0.2 mM; 21 °C.
In the case of `Cn1c(=O)c2nc(C3CCCC3)[nH]c2n(C)c1=O`, the “fraction of eclosed F1 progeny that are homozygous ATM8” value (shortened to “fraction”) was determined as 0.136.
With `C=C1c2c(Cl)ccc(O)c2C(=O)C2=C(O)[C@]3(O)C(=O)C(C(N)=O)=C(O)[C@@H](N(C)C)[C@@H]3[C@@H](O)[C@H]12.O=C(O)c1cc(S(=O)(=O)O)ccc1O`, the “fraction” value came to 0.133.
To `CC(C)(C)NCC(O)COc1cccc2c1CCC(=O)N2` (stereo not given) belongs 0.0263; to `O=C(O)c1cc(/N=N/c2ccc(O)c(C(=O)O)c2)ccc1O`, 0.08; to `O=C1C=C(O)C(=O)c2ccccc21`, 0.087.
As for `COc1ccc2c(c1OC)C(=O)O[C@@H]2[C@H]1c2c(cc3c(c2OC)OCO3)CCN1C`, the figure is 0.179; as for `CC(=O)NCCCS(=O)(=O)O`, 0.263; as for `CCOC(=O)O[C@]1(C(=O)COC(=O)CC)CC[C@H]2[C@@H]3CCC4=CC(=O)C=C[C@]4(C)[C@H]3[C@@H](O)C[C@@]21C`, 0.0303.
As for `Cn1c(=O)[nH]c(=O)c2[nH]cnc21`, the figure is 0.143; as for `COc1ccc(-c2cc(=O)c3c(O)c(OC)c(O[C@@H]4O[C@H](CO[C@@H]5O[C@@H](C)[C@H](O)[C@@H](O)[C@H]5O)[C@@H](O)[C@H](O)[C@H]4O)cc3o2)cc1`, 0.163; as for `CC(=O)OCC1=C(C(=O)O)N2C(=O)[C@@H](NC(=O)CCCC(N)C(=O)O)C2SC1` (stereo not given in full), 0.0851.
As to `O=C(C1CCCCC1)N1CC(=O)N2CCc3ccccc3C2C1` (stereo not given), the “fraction” value was 0.143.
As for `O=C(O)[C@@H](O)[C@H](O)[C@H](O)[C@@H](O)C(=O)O`, the figure is 0.0274; as for `OC[C@H]1O[C@H](O[C@]2(CCl)O[C@H](CCl)[C@@H](O)[C@@H]2O)[C@H](O)[C@@H](O)[C@H]1Cl`, 0.0833; as for `CC1(C)C=Cc2c(c3c(c4c(=O)c(-c5ccc(O)c(O)c5)coc24)OC(C)(C)CC3)O1`, 0.108.
As for `COc1ccc2c(c1)c(CC(=O)O)c(C)n2C(=O)c1ccc(Cl)cc1`, the “fraction” value is 0.156.
As for `Nc1nc2ccc(OC(F)(F)F)cc2s1`, the figure is 0.
As for `CC[C@H]1C(=O)OC[C@@H]1Cc1cncn1C`, the figure is 0.155.
Consider `Oc1noc2c1CCNC2`, for which the “fraction” value is 0.194.
To `CCOC(=O)COc1ccc2c(=O)cc(-c3ccccc3)oc2c1` belongs 0.233; to `COc1c(CC(=O)c2cc3c(cc2O)OC(C)(C)C(O)C3)ccc2c1C=CC(C)(C)O2` (stereo not given), 0.129.
As for `O=C1/C(=C/c2cccs2)CCC/C1=C\c1cccs1`, the figure is 0.12.
As for `C#CCCCCCCCCCCCC(O)CC(O)COC(C)=O.C=CCCCCCCCCCCCC(O)CC(O)COC(C)=O` (stereo not given), the figure is 0.182; as for `C[C@H]1c2cccc(O)c2C(=O)C2=C(O)[C@]3(O)C(=O)C(C(N)=O)=C(O)[C@@H](N(C)C)[C@@H]3[C@@H](O)[C@@H]21`, 0; as for `COc1cc([C@@H]2c3cc4c(cc3[C@H](O)[C@H]3COC(=O)[C@@H]23)OCO4)cc(OC)c1OC`, 0.167.
